For the assay, the target named is EspC passenger domain (α^EspC) (enteropathogenic E. coli (0127:H6 E2348/69)) (UniProt Q9EZE7). In words: AUC; sedimentation velocity; α^EspC at 0.5, 1 and 2 mg mL^-1 in 25 mM HEPES pH 7.0, 150 mM NaCl; 20°C; 40,000 rpm; absorbance at 280 nm; continuous-size distribution model (SEDFIT); both purified.

The chains behind the UniProt entries cited, without tags or fusion partners. Residues count along the entry.
UniProt Q9EZE7, residues 54-1028: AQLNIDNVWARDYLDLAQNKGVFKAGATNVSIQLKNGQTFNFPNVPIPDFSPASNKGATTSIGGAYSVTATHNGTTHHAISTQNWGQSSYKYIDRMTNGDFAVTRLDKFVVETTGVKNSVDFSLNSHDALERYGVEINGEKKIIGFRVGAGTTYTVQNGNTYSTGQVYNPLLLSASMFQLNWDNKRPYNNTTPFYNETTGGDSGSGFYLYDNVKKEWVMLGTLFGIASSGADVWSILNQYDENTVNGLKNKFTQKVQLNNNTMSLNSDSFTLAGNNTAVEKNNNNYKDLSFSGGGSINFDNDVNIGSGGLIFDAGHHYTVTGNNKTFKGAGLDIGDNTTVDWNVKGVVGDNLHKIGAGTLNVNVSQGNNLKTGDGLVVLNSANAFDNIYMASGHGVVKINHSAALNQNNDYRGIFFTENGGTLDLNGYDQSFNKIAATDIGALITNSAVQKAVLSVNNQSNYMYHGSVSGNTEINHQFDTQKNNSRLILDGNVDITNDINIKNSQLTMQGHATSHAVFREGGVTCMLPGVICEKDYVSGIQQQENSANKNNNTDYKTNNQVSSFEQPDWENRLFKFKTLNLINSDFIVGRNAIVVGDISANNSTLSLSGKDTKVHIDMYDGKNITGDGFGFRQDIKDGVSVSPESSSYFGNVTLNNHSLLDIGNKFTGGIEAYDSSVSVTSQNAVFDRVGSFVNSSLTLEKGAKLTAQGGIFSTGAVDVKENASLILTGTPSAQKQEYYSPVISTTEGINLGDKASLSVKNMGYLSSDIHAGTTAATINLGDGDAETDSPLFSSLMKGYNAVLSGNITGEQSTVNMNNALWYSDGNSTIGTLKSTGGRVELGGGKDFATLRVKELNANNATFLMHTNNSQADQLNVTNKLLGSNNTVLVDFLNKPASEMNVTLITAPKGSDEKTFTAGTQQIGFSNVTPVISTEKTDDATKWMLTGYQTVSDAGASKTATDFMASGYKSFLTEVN

These are yes or no findings as the source states them, for the method shown.

With “EspC passenger domain (α^EspC) (from UniProt Q9EZE7 54-1028) (domain or fragment)”, the binding result is reported as “no binding (tested: 2 mg mL^−1)”.

Source of the values: paper PMC11970781.
